# Data as given in patent US6743895B1, “Bone stimulating factor” (Osteopharm Inc., priority 1995, dated 2004).
# At least one peptide structure holds a part that was inferred or is arguable (an end, a ring closure or a residue). Residues, ends and D or L forms follow the SMILES beside them.
# Key:
# [1] = system: parathyroidectomized rats; experiment: Bone mineral apposition rate in parathyroidectomized rats, miniosmotic pump implant, tetracycline labelling; type: in vivo, rat; conditions: about 25 μg per day, 28 days, lower metaphysis of right femur
# ovariectomized rats [2] = experiment: Right femoral calcium concentration of ovariectomized rats, eight week administration; type: in vivo, rat; conditions: 100 μg s.c. every 24 hours for eight weeks, starting eight weeks after ovariectomization
# rats = experiment: Bone mineral apposition rate in intact rats after subcutaneous injection of polypeptide, tetracycline labelling; type: in vivo, Sprague-Dawley rats
# Method: Experiments were carried out on three groups of six rats weighing between 295 and 320 g. A 1 mg per ml solution of the modified peptide (SEQ ID NO:3) was prepared in 0.1% acetic acid. A 1 mg per ml solution of the normal peptide (SEQ ID NO:1) was prepared in 0.1% acetic acid. Each rat of a first of the groups had subcutaneously injected into its right thigh 0.1 ml of the modified peptide solution. Similarly, each rat of the second group was injected with 0.1 ml of the normal peptide solution. Each rat of the third group, the control group, was injected with 0.1 ml of 0.1% acetic acid solution. Immediately following these injections, each rat was injected intramuscularly with 24 mg per Kg body weight of tetracycline hydrochloride dissolved in 0.5 ml of water. A second dose of tetracycline hydrochloride was administered 48 hours later. The animals were sacrificed 24 hours after the second dose by CO2 narcosis. The lower metaphysis of the right femur was dissected out and fixed in a 10% aqueous solution of formaldehyde buffered at pH 7.2 by acetate buffer. Bone sections were prepared for measurement as described above.
# Sprague-Dawley rats were used as test animals to determine bone mineral apposition rate, as described above. Male rats having weights between 280 and 380 g were subject to subcutaneous injection after one week of acclimatization. Each animal was injected with 200 μl of a 0.1% acetic acid test solution, solutions having been prepared at concentrations to obtain a dosage of about 25 nmol of polypeptide per animal. Each test dose was immediately followed by intramuscular injection of 24 mg per Kg of body weight of tetracycline hydrochloride. A second injection of tetracycline was made 48 hours later.
# Bone mineral apposition rates were determined by measurements of the lower metaphysis of the right femur, as described previously. Results obtained in the two sets of experiments are summarized in Tables Seven and Eight and graphically depicted in FIGS. 8 and 9.
# Bone mineral apposition rates were again determined by measurement of the lower metaphysis of the right femur. Results obtained are summarized in Table Nineteen and graphically depicted in FIG. 12. […]
# In a final set of experiments, a polypeptide having the ninth amino acid, cysteine, replaced by the amino acid tyrosine, SEQ ID NO:43, was synthesized and tested for bone stimulatory activity. Four rats (about 300 grams) were each administered with 100 nmoles of material (in 400 μl 20 mM acetic acid solution) by subcutaneous injection along with tetracycline (5 mg per animal in 400 μl water), as described above. A second dosage of tetracycline was administered 48 hours later and the animals sacrificed 24 hours after that. […]
# ovariectomized rats [3] = experiment: Right femoral calcium concentration of ovariectomized rats, four week administration; type: in vivo, Sprague-Dawley rats; conditions: 100 μg s.c. every 24 hours for 28 days, starting two weeks after operation
# ovariectomized rats [4] = experiment: Bone mineral apposition rate of ovariectomized rats, four week administration; type: in vivo, Sprague-Dawley rats; conditions: 100 μg s.c. every 24 hours for 28 days, lower metaphysis of left femur
Structure (SMILES),"Bone mineral apposition rate, Mean [1] [μm/d]","Right Femoral Calcium Concentration, Mean (ovariectomized rats [2]) [µmol/mL]",Mean Bone Apposition Rate (rats; about 125 nmoles of polypeptide per Kg of body weight (Table Twenty)) [μm/day],"Bone mineral apposition rate, Mean (rats; male Sprague-Dawley rats 280-380 g, about 25 nmol per animal s.c., first set (Table Seven)) [μm per day]","Bone mineral apposition rate, Mean (rats; rats 295-320 g, 0.1 ml of 1 mg per ml solution s.c., lower metaphysis of right femur (Table Six)) [μm/d]","Bone Apposition Rate, Mean (rats; rats injected with non-N-terminus variants, SEQ ID NO:1 for comparison, lower metaphysis of right femur (Table Nineteen)) [μm/day]","Right Femoral Calcium Concentration, Mean (ovariectomized rats [3]) [µmol/mL]","Bone mineral apposition rate, Mean (ovariectomized rats [4]) [μm/day]"
CC[C@H](C)[C@H](NC(=O)CNC(C)=O)C(=O)NCC(=O)N[C@@H](CCCCN)C(=O)N[C@@H](CCCNC(=N)N)C(=O)N[C@H](C(=O)N[C@@H](CC(N)=O)C(=O)N[C@@H](CCC(=O)O)C(=O)N[C@@H](Cc1c[nH]cn1)C(=O)N[C@H](C(=O)N[C@@H](C)C(=O)N[C@@H](CC(=O)O)C(=O)N[C@@H](CS)C(=O)N[C@@H](CCCCN)C(=O)N[C@H](C(=O)N[C@@H](CCCCN)C(=O)N1CCC[C@H]1C(=O)N[C@@H](CC(N)=O)C(=O)N[C@H](C(=O)N[C@@H](CC(C)C)C(=O)N[C@@H](Cc1c[nH]cn1)C(=O)N[C@@H](CCCCN)C(=O)N[C@@H](CCCCN)C(=O)N[C@@H](C)C(=O)N[C@@H](C)C(=O)N[C@@H](CCC(=O)O)C(=O)N[C@H](C(=O)N[C@@H](CC(C)C)C(=O)N[C@@H](CCSC)C(=O)N[C@H](C(=O)N[C@@H](CC(C)C)C(=O)N[C@@H](CC(=O)O)C(=O)N[C@@H](CCC(N)=O)C(=O)N[C@@H](CC(N)=O)C(=O)N[C@@H](CCC(N)=O)C(=O)N1CCC[C@H]1C(=O)O)C(C)C)[C@@H](C)O)[C@@H](C)O)[C@@H](C)CC)[C@@H](C)O)[C@@H](C)O [SEQ ID NO:2] (Ac-GIGKRTNEHTADCKIKPNTLHKKAAETLMVLDQNQP-OH),1.27,7.37,,,,,,
CC[C@H](C)[C@H](NC(=O)CN)C(=O)NCC(=O)N[C@@H](CCCCN)C(=O)N[C@@H](CCCNC(=N)N)C(=O)N[C@H](C(=O)N[C@@H](CC(N)=O)C(=O)N[C@@H](CCC(=O)O)C(=O)N[C@@H](Cc1c[nH]cn1)C(=O)N[C@H](C(=O)N[C@@H](C)C(=O)N[C@@H](CC(=O)O)C(=O)N[C@@H](CS)C(=O)N[C@@H](CCCCN)C(=O)N[C@H](C(=O)N[C@@H](CCCCN)C(=O)N1CCC[C@H]1C(=O)N[C@@H](CC(N)=O)C(=O)N[C@H](C(=O)N[C@@H](CC(C)C)C(=O)N[C@@H](Cc1c[nH]cn1)C(=O)N[C@@H](CCCCN)C(=O)N[C@@H](CCCCN)C(=O)N[C@@H](C)C(=O)N[C@@H](C)C(=O)N[C@@H](CCC(=O)O)C(=O)N[C@H](C(=O)N[C@@H](CC(C)C)C(=O)N[C@@H](CCSC)C(=O)N[C@H](C(=O)N[C@@H](CC(C)C)C(=O)N[C@@H](CC(=O)O)C(=O)N[C@@H](CCC(N)=O)C(=O)N[C@@H](CC(N)=O)C(=O)N[C@@H](CCC(N)=O)C(=O)N1CCC[C@H]1C(=O)O)C(C)C)[C@@H](C)O)[C@@H](C)O)[C@@H](C)CC)[C@@H](C)O)[C@@H](C)O [SEQ ID NO:1] (H-GIGKRTNEHTADCKIKPNTLHKKAAETLMVLDQNQP-OH),,,2.03,1.4,1.67,1.5,7.57,0.90
